Test results published in publication PMC4376527.
Results are given in words; binding and its absence hold for the method and conditions named. In cells and extracts the contact can be indirect.

Target: T1, Smaug (Smg) (Drosophila (endogenous in adult thoraxes)) (UniProt Q23972)
T1 sequence: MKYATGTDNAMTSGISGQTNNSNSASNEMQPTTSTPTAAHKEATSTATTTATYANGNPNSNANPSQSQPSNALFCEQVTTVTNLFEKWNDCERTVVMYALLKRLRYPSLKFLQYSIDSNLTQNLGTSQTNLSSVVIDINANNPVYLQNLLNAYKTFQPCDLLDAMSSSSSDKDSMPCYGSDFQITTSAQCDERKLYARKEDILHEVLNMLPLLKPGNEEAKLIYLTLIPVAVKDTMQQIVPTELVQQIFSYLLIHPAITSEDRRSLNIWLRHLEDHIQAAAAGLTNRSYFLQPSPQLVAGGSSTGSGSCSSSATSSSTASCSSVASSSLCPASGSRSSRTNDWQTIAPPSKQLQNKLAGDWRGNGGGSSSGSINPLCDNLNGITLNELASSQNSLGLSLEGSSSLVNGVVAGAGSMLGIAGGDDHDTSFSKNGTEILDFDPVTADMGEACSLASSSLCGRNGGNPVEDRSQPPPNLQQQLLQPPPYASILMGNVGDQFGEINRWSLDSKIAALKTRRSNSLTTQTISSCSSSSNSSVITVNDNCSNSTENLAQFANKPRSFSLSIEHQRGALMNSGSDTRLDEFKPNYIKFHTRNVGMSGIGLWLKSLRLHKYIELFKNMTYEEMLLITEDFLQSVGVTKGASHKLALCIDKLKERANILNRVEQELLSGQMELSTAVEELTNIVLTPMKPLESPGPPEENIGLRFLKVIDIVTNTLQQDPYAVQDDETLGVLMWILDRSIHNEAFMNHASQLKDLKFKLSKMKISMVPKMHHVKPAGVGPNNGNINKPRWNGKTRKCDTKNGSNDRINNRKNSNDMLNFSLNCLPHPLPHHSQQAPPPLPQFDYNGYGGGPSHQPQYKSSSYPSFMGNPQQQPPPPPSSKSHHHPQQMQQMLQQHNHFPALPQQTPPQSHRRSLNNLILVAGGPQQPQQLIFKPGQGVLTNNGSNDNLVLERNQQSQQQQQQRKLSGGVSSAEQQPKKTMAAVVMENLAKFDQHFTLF
Assay: co-IP; Smg immunoprecipitation (rabbit anti-Smg; mock IP with rabbit IgG) from UASp-CCR4-HA/Mhc-Gal4 adult thorax extracts, in the presence or the absence of RNase A; western blots with anti-Smg, anti-HA and anti-PABP2

binding: no binding
B1: PABP2 (protein, UniProt Q7KNF2 1-224)
chain: MADEDITLNEDQLLESLEETNGEQETEIATEVEEEGSMQIDPELEAIKARVKEMEEEAEKIKQMQSEVDKQMAGGSTTGLATVPLSLEEKQEIDTRSVYVGNVDYGASAEELEAHFHGCGTINRVTILCNKADGHPKGFAYIEFGSKEFVETALAMNETLFRGRQIKVMSKRTNRPGLSTTNRFARGSFRGRGARVSRACCHSTFRGARRAMGYRGRANYYAPY
